Data as given in the supplement of paper PMC10849652.
The other results are listed elsewhere or left out.

Protein sequences, listed by entry. Tags and fused reporters are not part of them. Lines headed by an entry give the natural chain unless they say otherwise; changes in a name come on top.
UniProt P13716: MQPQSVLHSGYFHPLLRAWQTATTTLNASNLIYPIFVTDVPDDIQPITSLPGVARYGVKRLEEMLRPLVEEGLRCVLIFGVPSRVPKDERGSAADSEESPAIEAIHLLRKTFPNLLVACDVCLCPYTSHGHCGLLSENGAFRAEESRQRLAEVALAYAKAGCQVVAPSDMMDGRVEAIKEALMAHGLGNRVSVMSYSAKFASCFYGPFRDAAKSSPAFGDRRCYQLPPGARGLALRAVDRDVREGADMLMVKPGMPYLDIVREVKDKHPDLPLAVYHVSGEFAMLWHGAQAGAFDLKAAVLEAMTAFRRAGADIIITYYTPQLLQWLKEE
UniProt Q53H80, whole entry, looked up: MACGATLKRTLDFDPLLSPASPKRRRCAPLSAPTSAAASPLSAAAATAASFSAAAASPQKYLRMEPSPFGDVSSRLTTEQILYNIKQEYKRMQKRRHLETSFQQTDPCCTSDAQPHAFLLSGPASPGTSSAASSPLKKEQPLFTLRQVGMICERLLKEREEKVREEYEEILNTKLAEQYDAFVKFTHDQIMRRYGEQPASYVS
UniProt Q9Y4W6: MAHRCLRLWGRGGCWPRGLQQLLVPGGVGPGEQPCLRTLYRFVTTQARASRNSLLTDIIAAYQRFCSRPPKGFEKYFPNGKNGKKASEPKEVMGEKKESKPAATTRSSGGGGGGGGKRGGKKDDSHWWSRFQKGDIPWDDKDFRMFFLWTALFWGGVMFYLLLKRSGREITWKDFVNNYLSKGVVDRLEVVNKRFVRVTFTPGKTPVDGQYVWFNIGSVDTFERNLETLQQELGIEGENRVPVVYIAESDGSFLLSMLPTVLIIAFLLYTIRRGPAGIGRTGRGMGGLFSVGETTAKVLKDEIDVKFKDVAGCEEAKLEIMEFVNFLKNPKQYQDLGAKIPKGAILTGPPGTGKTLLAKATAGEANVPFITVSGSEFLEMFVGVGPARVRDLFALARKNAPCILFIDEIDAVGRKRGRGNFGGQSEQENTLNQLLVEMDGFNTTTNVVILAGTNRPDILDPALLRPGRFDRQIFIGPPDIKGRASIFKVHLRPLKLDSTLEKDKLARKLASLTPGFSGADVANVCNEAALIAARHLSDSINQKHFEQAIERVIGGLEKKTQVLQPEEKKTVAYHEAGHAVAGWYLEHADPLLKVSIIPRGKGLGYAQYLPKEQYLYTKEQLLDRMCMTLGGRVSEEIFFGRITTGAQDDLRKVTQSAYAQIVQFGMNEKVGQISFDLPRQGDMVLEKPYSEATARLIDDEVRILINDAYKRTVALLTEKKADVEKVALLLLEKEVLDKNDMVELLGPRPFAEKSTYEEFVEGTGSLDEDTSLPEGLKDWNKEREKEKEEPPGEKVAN
UniProt Q3SY69: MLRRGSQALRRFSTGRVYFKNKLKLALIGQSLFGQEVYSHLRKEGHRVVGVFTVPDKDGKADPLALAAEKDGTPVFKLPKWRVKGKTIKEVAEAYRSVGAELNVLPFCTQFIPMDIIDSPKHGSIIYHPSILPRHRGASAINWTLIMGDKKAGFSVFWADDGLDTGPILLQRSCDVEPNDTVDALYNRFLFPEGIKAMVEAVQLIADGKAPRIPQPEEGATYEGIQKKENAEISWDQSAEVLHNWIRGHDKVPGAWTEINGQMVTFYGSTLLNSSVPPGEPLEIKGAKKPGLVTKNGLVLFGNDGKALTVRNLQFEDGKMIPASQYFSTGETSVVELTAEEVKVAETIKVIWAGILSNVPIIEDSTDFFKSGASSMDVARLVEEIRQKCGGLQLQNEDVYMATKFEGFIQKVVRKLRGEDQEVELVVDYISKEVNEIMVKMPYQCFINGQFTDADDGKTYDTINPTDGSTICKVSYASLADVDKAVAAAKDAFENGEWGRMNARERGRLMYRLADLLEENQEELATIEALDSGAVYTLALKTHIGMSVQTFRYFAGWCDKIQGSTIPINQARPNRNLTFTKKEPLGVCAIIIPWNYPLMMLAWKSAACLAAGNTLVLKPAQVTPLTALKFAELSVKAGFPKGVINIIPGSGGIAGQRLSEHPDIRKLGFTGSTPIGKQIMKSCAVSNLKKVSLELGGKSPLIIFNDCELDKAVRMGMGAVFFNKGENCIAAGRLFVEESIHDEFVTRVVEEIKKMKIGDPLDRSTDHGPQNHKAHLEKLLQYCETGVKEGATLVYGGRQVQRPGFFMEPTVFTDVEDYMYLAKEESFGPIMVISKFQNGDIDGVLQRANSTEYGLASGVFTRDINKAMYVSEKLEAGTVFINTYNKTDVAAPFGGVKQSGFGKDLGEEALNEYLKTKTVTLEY
UniProt P51649: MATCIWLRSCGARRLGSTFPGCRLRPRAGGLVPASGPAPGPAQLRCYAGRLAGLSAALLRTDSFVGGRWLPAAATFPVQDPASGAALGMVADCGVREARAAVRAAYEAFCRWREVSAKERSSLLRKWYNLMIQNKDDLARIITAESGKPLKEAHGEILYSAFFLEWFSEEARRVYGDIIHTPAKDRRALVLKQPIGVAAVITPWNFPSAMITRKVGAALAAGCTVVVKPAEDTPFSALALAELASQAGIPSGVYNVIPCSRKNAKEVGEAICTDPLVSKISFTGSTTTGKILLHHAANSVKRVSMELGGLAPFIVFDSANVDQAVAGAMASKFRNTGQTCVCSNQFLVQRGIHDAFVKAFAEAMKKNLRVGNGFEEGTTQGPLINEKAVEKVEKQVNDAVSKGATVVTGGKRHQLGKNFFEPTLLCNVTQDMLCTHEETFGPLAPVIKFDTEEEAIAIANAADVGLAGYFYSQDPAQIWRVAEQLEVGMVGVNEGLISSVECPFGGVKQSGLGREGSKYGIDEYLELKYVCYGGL
UniProt O15120: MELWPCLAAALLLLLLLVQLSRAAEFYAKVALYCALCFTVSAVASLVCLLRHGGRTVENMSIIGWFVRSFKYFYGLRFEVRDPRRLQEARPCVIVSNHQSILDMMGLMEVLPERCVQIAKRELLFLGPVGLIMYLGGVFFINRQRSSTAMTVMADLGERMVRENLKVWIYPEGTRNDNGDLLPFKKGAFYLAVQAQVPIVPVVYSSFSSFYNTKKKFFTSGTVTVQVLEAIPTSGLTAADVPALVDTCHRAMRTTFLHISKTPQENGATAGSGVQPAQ
UniProt Q9Y303: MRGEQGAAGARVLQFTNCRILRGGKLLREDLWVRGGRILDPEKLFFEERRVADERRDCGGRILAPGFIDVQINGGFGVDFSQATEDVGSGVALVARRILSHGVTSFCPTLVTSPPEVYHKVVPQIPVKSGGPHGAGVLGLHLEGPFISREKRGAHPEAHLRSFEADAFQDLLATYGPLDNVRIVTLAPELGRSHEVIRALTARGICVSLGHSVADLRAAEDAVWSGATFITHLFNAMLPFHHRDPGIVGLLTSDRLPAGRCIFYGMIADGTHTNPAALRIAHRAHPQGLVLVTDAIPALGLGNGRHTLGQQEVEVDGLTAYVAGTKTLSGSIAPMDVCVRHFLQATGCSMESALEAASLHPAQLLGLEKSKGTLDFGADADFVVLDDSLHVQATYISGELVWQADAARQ
UniProt Q9BRR6: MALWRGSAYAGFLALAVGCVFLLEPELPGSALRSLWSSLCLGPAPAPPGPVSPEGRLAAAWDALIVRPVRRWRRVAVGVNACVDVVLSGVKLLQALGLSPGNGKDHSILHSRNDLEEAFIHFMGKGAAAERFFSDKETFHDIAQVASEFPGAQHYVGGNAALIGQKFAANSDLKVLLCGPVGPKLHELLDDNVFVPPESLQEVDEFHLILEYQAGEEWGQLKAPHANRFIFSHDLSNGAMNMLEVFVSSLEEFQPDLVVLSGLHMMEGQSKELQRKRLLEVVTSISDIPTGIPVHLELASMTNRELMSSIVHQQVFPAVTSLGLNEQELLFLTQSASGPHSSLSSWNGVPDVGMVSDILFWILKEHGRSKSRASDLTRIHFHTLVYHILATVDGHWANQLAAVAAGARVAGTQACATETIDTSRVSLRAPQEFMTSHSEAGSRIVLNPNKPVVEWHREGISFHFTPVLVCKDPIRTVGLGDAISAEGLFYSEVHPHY
UniProt Q01432: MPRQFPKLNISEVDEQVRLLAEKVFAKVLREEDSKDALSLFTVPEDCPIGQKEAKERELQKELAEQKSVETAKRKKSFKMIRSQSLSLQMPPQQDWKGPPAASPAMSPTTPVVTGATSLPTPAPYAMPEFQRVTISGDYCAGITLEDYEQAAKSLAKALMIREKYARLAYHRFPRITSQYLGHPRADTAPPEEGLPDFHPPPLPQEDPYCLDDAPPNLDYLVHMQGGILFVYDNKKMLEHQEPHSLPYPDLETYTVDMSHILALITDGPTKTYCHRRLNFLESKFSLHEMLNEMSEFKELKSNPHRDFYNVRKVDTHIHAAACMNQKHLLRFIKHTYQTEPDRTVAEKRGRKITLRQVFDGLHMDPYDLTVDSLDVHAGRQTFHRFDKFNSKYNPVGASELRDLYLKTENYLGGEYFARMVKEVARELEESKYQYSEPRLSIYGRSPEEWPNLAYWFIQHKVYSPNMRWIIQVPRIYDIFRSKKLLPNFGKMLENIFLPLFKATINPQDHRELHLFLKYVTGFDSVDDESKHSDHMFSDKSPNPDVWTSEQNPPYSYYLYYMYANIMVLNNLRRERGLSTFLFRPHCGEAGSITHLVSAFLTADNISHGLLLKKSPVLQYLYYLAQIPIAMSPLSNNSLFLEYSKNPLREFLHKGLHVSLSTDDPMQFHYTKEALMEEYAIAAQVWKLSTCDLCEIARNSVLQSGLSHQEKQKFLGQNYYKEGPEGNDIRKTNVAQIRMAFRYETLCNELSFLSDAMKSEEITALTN
UniProt Q6RW13: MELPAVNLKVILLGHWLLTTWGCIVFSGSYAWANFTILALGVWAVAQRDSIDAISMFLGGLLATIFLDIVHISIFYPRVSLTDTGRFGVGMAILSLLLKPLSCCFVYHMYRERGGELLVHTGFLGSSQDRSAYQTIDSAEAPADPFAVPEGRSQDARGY
UniProt Q9Y672: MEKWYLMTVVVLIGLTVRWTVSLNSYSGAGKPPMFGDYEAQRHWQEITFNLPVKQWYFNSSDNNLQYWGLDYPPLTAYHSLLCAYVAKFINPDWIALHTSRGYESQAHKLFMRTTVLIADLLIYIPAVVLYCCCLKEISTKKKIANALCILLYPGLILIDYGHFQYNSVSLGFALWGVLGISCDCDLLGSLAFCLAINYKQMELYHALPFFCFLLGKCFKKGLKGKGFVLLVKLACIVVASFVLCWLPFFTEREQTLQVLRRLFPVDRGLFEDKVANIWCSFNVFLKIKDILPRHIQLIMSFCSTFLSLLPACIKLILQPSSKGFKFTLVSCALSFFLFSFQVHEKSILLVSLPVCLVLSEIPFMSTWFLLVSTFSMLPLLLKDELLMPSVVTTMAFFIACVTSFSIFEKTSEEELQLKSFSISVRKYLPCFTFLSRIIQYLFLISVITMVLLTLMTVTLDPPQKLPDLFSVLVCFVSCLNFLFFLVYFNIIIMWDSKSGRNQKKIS
UniProt Q96SZ5, whole entry, looked up: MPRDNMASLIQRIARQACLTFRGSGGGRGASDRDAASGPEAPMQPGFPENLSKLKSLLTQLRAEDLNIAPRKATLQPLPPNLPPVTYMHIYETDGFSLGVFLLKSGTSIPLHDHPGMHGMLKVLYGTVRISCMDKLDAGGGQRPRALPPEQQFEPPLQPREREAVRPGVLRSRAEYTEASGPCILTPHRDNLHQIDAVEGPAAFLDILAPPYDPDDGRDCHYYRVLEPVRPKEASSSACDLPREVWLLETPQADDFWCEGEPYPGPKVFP
UniProt Q9NRZ5: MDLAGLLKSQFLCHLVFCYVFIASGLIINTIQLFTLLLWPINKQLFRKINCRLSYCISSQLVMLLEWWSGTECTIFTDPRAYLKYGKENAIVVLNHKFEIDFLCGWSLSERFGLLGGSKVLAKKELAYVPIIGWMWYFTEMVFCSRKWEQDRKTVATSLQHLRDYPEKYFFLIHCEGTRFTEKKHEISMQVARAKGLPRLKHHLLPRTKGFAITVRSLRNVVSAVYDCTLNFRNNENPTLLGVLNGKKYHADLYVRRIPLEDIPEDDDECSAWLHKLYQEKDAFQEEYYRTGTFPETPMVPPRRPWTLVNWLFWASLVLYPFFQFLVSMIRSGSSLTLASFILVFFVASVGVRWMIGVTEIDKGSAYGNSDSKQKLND
UniProt Q5I7T1: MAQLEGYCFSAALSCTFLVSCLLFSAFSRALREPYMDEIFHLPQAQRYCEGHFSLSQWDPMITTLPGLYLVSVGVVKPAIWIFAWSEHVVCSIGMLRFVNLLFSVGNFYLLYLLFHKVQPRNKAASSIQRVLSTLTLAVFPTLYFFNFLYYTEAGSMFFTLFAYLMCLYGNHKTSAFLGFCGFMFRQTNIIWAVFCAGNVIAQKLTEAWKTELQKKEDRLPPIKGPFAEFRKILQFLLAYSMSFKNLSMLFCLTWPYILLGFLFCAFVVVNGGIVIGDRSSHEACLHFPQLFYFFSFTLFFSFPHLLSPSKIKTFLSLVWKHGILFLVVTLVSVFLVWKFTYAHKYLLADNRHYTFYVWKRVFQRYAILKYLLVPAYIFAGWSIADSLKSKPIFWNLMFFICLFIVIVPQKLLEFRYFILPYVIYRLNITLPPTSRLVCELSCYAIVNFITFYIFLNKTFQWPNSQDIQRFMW

Experiments:
Test in all cases: log2 fold change, soluble protein after heating vs DMSO (PISA); higher = thermal stabilisation; K562 cells, 10 uM, 30 min; active = over 0.2 and 3.5 SD of the protein, either way, in both replicates (recomputed)
saracatinib = compound: CN1CCN(CCOc2cc(OC3CCOCC3)c3c(Nc4c(Cl)ccc5c4OCO5)ncnc3c2)CC1 [saracatinib]
Outline: (§1)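 For each measurement, 10 μM compound was applied for 30 min to K562 cells at 2×10^6 cells/mL. Aliquots were heated for 3 min across 48°C-58°C, pooled, and extracted in PBS with 0.5% NP-40 at 4°C; the supernatant after 21,000xg for 90 min was soluble protein. This was quantified by TMTpro 16plex LC-MS/MS with channel sums equalised, and thermal stability was reported relative to control samples from duplicates, on a log2 fold-change scale.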

sotrastaurin = compound: CN1CCN(c2nc(C3=C(c4c[nH]c5ccccc45)C(=O)NC3=O)c3ccccc3n2)CC1 [sotrastaurin]
Outline: as §1

alvocidib = compound: CN1CC[C@H](c2c(O)cc(O)c3c(=O)cc(-c4ccccc4Cl)oc23)[C@H](O)C1 [alvocidib]
Outline: as §1

Tubastatin A = compound: CN1CCc2c(c3ccccc3n2Cc2ccc(C(=O)NO)cc2)C1 [Tubastatin A]
Outline: as §1

[1] = compound: CNC(=O)C1=CC=CC=C1NC2=NC(=NC=C2Cl)NC3=C(C=C(C=C3)N4CCOCC4)OC
Outline: as §1

defactinib = compound: CNC(=O)c1ccc(Nc2ncc(C(F)(F)F)c(NCc3nccnc3N(C)S(C)(=O)=O)n2)cc1 [defactinib]
Outline: as §1

rucaparib = compound: CNCc1ccc(-c2[nH]c3cc(F)cc4c3c2CCNC4=O)cc1 [rucaparib]
Outline: as §1

[2] = compound: CNc1nc(-c2ccc3c(N)n[nH]c3c2)cc(N2C[C@@H](C(=O)NC3CCCCC3)CC[C@H]2C)n1
Outline: as §1

encorafenib = compound: COC(=O)N[C@@H](C)CNc1nccc(-c2cn(C(C)C)nc2-c2cc(Cl)cc(NS(C)(=O)=O)c2F)n1 [encorafenib]
Outline: as §1

[3] = compound: COC(=O)[C@H](CCSC)NC(=O)C1=C(C=C(C=C1)NC[C@H](CS)N)C2=CC=CC=C2
Outline: as §1

[4] = compound: COC1=CC=C(C=C1)CN2C=CC3=C2C=C(C=C3)C(=O)NO
Outline: as §1

filanesib = compound: CON(C)C(=O)N1N=C(c2cc(F)ccc2F)S[C@@]1(CCCN)c1ccccc1 [filanesib]
Outline: as §1

zotarolimus = compound: CO[C@H]1C[C@@H]2CC[C@@H](C)[C@@](O)(O2)C(=O)C(=O)N2CCCC[C@H]2C(=O)O[C@H]([C@H](C)C[C@@H]2CC[C@H](n3cnnn3)[C@H](OC)C2)CC(=O)[C@H](C)/C=C(\C)[C@@H](O)[C@@H](OC)C(=O)[C@H](C)C[C@H](C)/C=C/C=C/C=C/1C [zotarolimus]
Outline: as §1

idasanutlin = compound: COc1cc(C(=O)O)ccc1NC(=O)[C@@H]1N[C@@H](CC(C)(C)C)[C@](C#N)(c2ccc(Cl)cc2F)[C@H]1c1cccc(Cl)c1F [idasanutlin]
Outline: as §1

alisertib = compound: COc1cc(Nc2ncc3c(n2)-c2ccc(Cl)cc2C(c2c(F)cccc2OC)=NC3)ccc1C(=O)O [alisertib]
Outline: as §1

[5] = compound: COc1cc2nc(-c3cc(F)ccc3O)nc(N[C@@H]3CNC[C@H]3C(C)(C)O)c2cc1OC
Outline: as §1

gefitinib = compound: COc1cc2ncnc(Nc3ccc(F)c(Cl)c3)c2cc1OCCCN1CCOCC1 [gefitinib]
Outline: as §1

[6] = compound: COc1cccc2cc(-c3nc([C@H]4CC[C@H](C(=O)O)CC4)n4ncnc(N)c34)[nH]c12
Outline: as §1

lapatinib = compound: CS(=O)(=O)CCNCc1ccc(-c2ccc3ncnc(Nc4ccc(OCc5cccc(F)c5)c(Cl)c4)c3c2)o1 [lapatinib]
Outline: as §1

pictilisib = compound: CS(=O)(=O)N1CCN(Cc2cc3nc(-c4cccc5[nH]ncc45)nc(N4CCOCC4)c3s2)CC1 [pictilisib]
Outline: as §1

Measured: log2 fold change

ALYREF (UniProt Q86V81)
inactive: saracatinib 0.037 | sotrastaurin 0.011 | alvocidib 0.359 | Tubastatin A 0.02 | [1] 0.048 | defactinib 0.432 | rucaparib 0.292 | [2] 0.063 | encorafenib 0.071 | [3] 0.047 | [4] -0.157 | filanesib 0.311 | zotarolimus -0.036 | idasanutlin 0.145 | alisertib -0.035 | [5] 0.02 | gefitinib -0.062 | [6] -0.095 | lapatinib 0.045 | pictilisib 0.021

ALAD isoform 2 (UniProt P13716)
inactive: saracatinib -0.023 | sotrastaurin 0.01 | alvocidib 0.02 | Tubastatin A 0.002 | [1] -0.084 | defactinib 0.008 | rucaparib -0.004 | [2] -0.076 | encorafenib 0.003 | [3] 0.002 | [4] 0.032 | filanesib -0.09 | zotarolimus 0.069 | idasanutlin -0.001 | alisertib 0.035 | [5] -0.006 | gefitinib -0.027 | [6] 0.021 | lapatinib 0.012 | pictilisib -0.026

AKIRIN2 (UniProt Q53H80)
inactive: saracatinib 0.022 | sotrastaurin -0.02 | alvocidib -0.378 | Tubastatin A 0.358 | [1] 0.094 | defactinib -0.073 | rucaparib 0.077 | [2] -0.101 | encorafenib -0.076 | [3] 0.075 | [4] -0.091 | filanesib 0.024 | zotarolimus 0.149 | idasanutlin -0.03 | alisertib 0.11 | [5] -0.106 | gefitinib -0.001 | [6] 0.121 | lapatinib 0.031 | pictilisib 0.153

AFG3L2 (UniProt Q9Y4W6)
inactive: saracatinib 0.014 | sotrastaurin 0.033 | alvocidib -0.019 | Tubastatin A -0.084 | [1] -0.002 | defactinib -0.034 | rucaparib -0.03 | [2] -0.02 | encorafenib 0.023 | [3] -0.004 | [4] -0.098 | filanesib -0.074 | zotarolimus -0.029 | idasanutlin 0.072 | alisertib 0.011 | [5] 0.017 | gefitinib -0.013 | [6] 0.036 | lapatinib -0.074 | pictilisib -0.019

ALDH1L2 (UniProt Q3SY69)
inactive: saracatinib -0.011 | sotrastaurin 0.049 | alvocidib -0.181 | Tubastatin A -0.132 | [1] 0.06 | defactinib -0.164 | rucaparib 0.171 | [2] -0.035 | encorafenib 0.071 | [3] 0.068 | [4] -0.012 | filanesib -0.176 | zotarolimus -0.059 | idasanutlin -0.071 | alisertib 0.056 | [5] -0.13 | gefitinib 0.16 | [6] 0.093 | lapatinib 0.08 | pictilisib 0.06

ALDH5A1 isoform 2 (UniProt P51649)
inactive: saracatinib 0.026 | sotrastaurin 0.022 | alvocidib -0.08 | Tubastatin A -0.005 | [1] 0.018 | defactinib -0.015 | rucaparib -0.007 | [2] -0.036 | encorafenib -0.004 | [3] -0.001 | [4] 0.055 | filanesib -0.032 | zotarolimus -0.037 | idasanutlin -0.034 | alisertib 0.003 | [5] -0.045 | gefitinib 0.003 | [6] 0.041 | lapatinib 0.042 | pictilisib -0.002

Reprinted at random: 2 entries already listed
AFG3L2 (UniProt Q9Y4W6)
inactive: saracatinib 0.014 | sotrastaurin 0.033 | alvocidib -0.019 | Tubastatin A -0.084 | [1] -0.002 | defactinib -0.034 | rucaparib -0.03 | [2] -0.02 | encorafenib 0.023 | [3] -0.004 | [4] -0.098 | filanesib -0.074 | zotarolimus -0.029 | idasanutlin 0.072 | alisertib 0.011 | [5] 0.017 | gefitinib -0.013 | [6] 0.036 | lapatinib -0.074 | pictilisib -0.019

ALDH1L2 (UniProt Q3SY69)
inactive: saracatinib -0.011 | sotrastaurin 0.049 | alvocidib -0.181 | Tubastatin A -0.132 | [1] 0.06 | defactinib -0.164 | rucaparib 0.171 | [2] -0.035 | encorafenib 0.071 | [3] 0.068 | [4] -0.012 | filanesib -0.176 | zotarolimus -0.059 | idasanutlin -0.071 | alisertib 0.056 | [5] -0.13 | gefitinib 0.16 | [6] 0.093 | lapatinib 0.08 | pictilisib 0.06

(cont.)

AGPAT2 (UniProt O15120)
inactive: saracatinib 0.089 | sotrastaurin -0.034 | alvocidib 0.019 | Tubastatin A 0.114 | [1] 0.018 | defactinib -0.025 | rucaparib 0.012 | [2] 0.042 | encorafenib 0.002 | [3] 0.083 | [4] 0.055 | filanesib -0.038 | zotarolimus -0.023 | idasanutlin 0.021 | alisertib -0.106 | [5] -0.055 | gefitinib 0.038 | [6] 0.004 | lapatinib 0.107 | pictilisib 0.001

AMDHD2 (UniProt Q9Y303)
inactive: saracatinib 0.047 | sotrastaurin 0.013 | alvocidib -0.171 | Tubastatin A 0.309 | [1] 0.171 | defactinib -0.05 | rucaparib 0.229 | [2] 0.085 | encorafenib 0.003 | [3] -0.088 | filanesib -0.16 | zotarolimus -0.023 | [5] -0.123 | lapatinib 0.011 | pictilisib -0.158

ADPGK (UniProt Q9BRR6)
inactive: saracatinib 0.044 | sotrastaurin 0.009 | alvocidib 0.001 | Tubastatin A -0.035 | [1] -0.031 | defactinib -0.033 | rucaparib 0 | [2] -0.035 | encorafenib -0.016 | [3] -0.002 | [4] 0.072 | filanesib -0.034 | zotarolimus -0.078 | idasanutlin -0.052 | alisertib -0.025 | [5] 0.025 | gefitinib -0.003 | [6] 0.003 | lapatinib -0.039 | pictilisib -0.002

AMPD3 isoform 4 (UniProt Q01432)
inactive: saracatinib -0.038 | sotrastaurin 0.04 | alvocidib -0.043 | Tubastatin A -0.058 | [1] -0.046 | defactinib -0.031 | rucaparib -0.03 | [2] -0.001 | encorafenib -0.008 | [3] 0.024 | [4] -0.041 | filanesib -0.102 | zotarolimus 0.01 | idasanutlin 0.029 | alisertib -0.023 | [5] 0.019 | gefitinib -0.009 | [6] 0.071 | lapatinib 0.01 | pictilisib 0.131

ADI1 (UniProt Q9BV57)
inactive: saracatinib -0.255 | sotrastaurin -0.07 | alvocidib -0.059 | Tubastatin A -0.138 | [1] 0.064 | defactinib -0.045 | rucaparib -0.051 | [2] -0.068 | encorafenib -0.012 | [3] 0.16 | [4] -0.176 | filanesib 0.084 | zotarolimus -0.03 | idasanutlin -0.007 | alisertib -0.001 | [5] 0.087 | gefitinib 0.021 | [6] 0.011 | lapatinib -0.067 | pictilisib 0.121

AGTRAP (UniProt Q6RW13)
inactive: saracatinib 0.046 | sotrastaurin 0.027 | alvocidib -0.056 | Tubastatin A -0.064 | [1] 0.01 | defactinib -0.075 | rucaparib 0 | [2] -0.025 | encorafenib 0.031 | [3] 0.099 | [4] -0.092 | filanesib -0.005 | zotarolimus 0.075 | idasanutlin -0.114 | alisertib 0.117 | [5] -0.049 | gefitinib 0.005 | [6] 0.025 | lapatinib -0.058 | pictilisib 0.052

ALG6 (UniProt Q9Y672)
inactive: saracatinib 0.07 | sotrastaurin -0.065 | alvocidib 0.055 | Tubastatin A 0.027 | [1] 0.038 | defactinib -0.118 | rucaparib -0.049 | [2] -0.026 | encorafenib 0.161 | [3] -0.019 | [4] -0.018 | filanesib -0.161 | zotarolimus -0.152 | idasanutlin -0.13 | alisertib -0.053 | [5] -0.017 | gefitinib -0.084 | [6] 0.104 | lapatinib -0.006 | pictilisib 0.058

ADO (UniProt Q96SZ5)
inactive: saracatinib 0.005 | sotrastaurin 0.024 | alvocidib -0.023 | Tubastatin A -0.04 | [1] -0.081 | defactinib -0.012 | rucaparib -0.067 | [2] -0.015 | encorafenib -0.082 | [3] 0.065 | [4] -0.048 | filanesib -0.008 | zotarolimus -0.026 | idasanutlin 0.001 | alisertib -0.072 | [5] -0.003 | gefitinib 0.008 | [6] 0.044 | lapatinib -0.023 | pictilisib 0.016

AGPAT4 (UniProt Q9NRZ5)
inactive: saracatinib -0.118 | sotrastaurin 0.07 | alvocidib -0.075 | Tubastatin A -0.034 | [1] -0.051 | rucaparib 0.045 | [2] -0.246 | encorafenib -0.058 | filanesib -0.154 | zotarolimus 0.012 | alisertib -0.067 | [5] 0.109 | gefitinib 0.04 | [6] -0.081 | lapatinib 0.054 | pictilisib 0.034

ALG10B (UniProt Q5I7T1)
inactive: saracatinib 0.029 | sotrastaurin -0.018 | alvocidib 0.03 | Tubastatin A -0.042 | [1] 0.019 | defactinib 0.128 | rucaparib -0.023 | [2] 0.014 | encorafenib -0.014 | [3] -0.151 | [4] -0.012 | filanesib -0.077 | zotarolimus -0.1 | idasanutlin -0.048 | alisertib -0.024 | [5] 0.024 | gefitinib -0.006 | [6] 0.15 | lapatinib 0.017 | pictilisib 0.01

ALG12 (UniProt Q9BV10)
inactive: saracatinib 0.069 | sotrastaurin 0.205 | alvocidib 0.152 | Tubastatin A 0.02 | [1] 0.031 | defactinib -0.005 | rucaparib -0.134 | [2] 0.014 | encorafenib 0.125 | [3] -0.003 | [4] -0.093 | filanesib -0.168 | zotarolimus 0.083 | idasanutlin -0.049 | alisertib 0.006 | [5] 0 | [6] 0.112 | lapatinib -0.014
